{
  "source": "patent US20240293429A1",
  "about": "“MICROBIAL-TRIGGERED ORAL INTESTINAL DRUG DELIVERY FORMULATION AND METHOD OF PREPARATION THEREOF” (NBI BIOSCIENCES PVT LTD, priority 2021, published 2024)",
  "system": "rat cecal content",
  "test": "Dissolution study in the presence of rat cecal content 4% w/v",
  "format": "physicochemical",
  "conditions": "including 2% of a possible mathematical error",
  "note": "For at least one compound, name, drawing or mass did not settle the structure.",
  "data": [
    {"smiles": "CCCC1O[C@@H]2C[C@H]3[C@@H]4CCC5=CC(=O)C=C[C@]5(C)[C@H]4[C@@H](O)C[C@]3(C)[C@]2(C(=O)CO)O1", "note": "(stereo partly shown) [Budesonide]", "values": [
      {"measurement": "Budesonide released in the large intestine media", "result": 98, "unit": "%"}
    ]}
  ]
}
